Measurements: PubChem BioAssay AID540275 (National Center for Advancing Translational Sciences (NCATS), 2011)
In all, about 320,000 compounds went through this assay and about 620 (0.19%) were called active. Inconclusive results, whose numbers are uncertain, are shown with a selection of clear calls. No stated cut-off is given here; in the data, active means activation above about 80%; inconclusive means between about 30% and that limit; inactive means weaker than that. Where a SMILES comes first, the peptide text is derived from it. [ ]: non-standard residue; d: D form. The star is where a group is joined. ξ: configuration not given here. ξY = NC(Cc1ccc(O)cc1)C(=O)O; Cbz = O=C(OCc1ccccc1)*; OtBu = CC(C)(C)O*; tBu = CC(C)(C)*

Sequences of proteins named here, by UniProt entry; tags and fusion partners are left off.
UniProt Q8NER1, whole entry, looked up: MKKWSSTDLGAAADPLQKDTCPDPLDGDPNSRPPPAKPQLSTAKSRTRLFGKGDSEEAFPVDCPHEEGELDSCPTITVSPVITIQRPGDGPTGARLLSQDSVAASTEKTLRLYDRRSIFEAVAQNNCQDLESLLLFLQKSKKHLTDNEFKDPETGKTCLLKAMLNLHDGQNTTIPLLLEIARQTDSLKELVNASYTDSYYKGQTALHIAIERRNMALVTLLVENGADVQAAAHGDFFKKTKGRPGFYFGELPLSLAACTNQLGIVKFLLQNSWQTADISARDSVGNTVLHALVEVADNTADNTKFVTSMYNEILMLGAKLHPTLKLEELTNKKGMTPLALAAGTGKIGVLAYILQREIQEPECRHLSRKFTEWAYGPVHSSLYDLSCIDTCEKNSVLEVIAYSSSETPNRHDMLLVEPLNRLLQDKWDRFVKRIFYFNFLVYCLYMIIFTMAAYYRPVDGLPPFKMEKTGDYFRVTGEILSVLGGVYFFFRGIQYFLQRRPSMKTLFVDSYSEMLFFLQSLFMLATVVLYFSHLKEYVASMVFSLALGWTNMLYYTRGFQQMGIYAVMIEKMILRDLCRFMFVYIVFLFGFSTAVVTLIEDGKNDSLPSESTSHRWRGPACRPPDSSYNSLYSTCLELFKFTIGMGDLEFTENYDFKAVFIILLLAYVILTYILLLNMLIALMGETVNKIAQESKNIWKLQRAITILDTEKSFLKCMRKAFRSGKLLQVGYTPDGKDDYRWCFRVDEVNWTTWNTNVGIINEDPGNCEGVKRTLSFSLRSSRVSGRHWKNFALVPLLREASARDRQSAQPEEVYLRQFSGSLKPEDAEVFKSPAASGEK

What follows are molecules tested against Transient receptor potential cation channel subfamily V member 1 (Homo sapiens) (UniProt Q8NER1) (assay: HTS Assay for Compounds that Act as Agonists of the Vanilloid Receptor 1). Details: TRPV1-expressing cells, Fluo-8 calcium influx, agonist mode; at 8.33 µM, hits give high values.
How it was run: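 Fluo-8 calcium influx in TRPV1-expressing cells, kinetic read (ex 480/em 520 nm). Compound added and read 3 min for agonist activity, followed by capsaicin at EC20 final and 2 min further read for enhancement.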
Further: 0% is about no effect.

| SMILES | activation |
| --- | --- |
| COc1ccc(Br)cc1[C@H]1[C@H]2C=CC[C@@H](C)[C@@H]2C(=O)N1Cc1ccccc1 | inconclusive: 49% |
| COc1ccc(NC(=O)c2ccc(-n3cncn3)c([N+](=O)[O-])c2)cc1 | inconclusive: 32.1% |
| CCOC(=O)c1sc(NC(=O)c2ccc3ncsc3c2)nc1C | inconclusive: 51.4% |
| O=C(OCC1OC(n2cnc3c(N(C(=O)c4ccccc4)C(=O)c4ccccc4)ncnc32)C(O)C1F)c1ccccc1 (centres undefined) | inactive: 0.168% |
| O=c1c(Cl)c2oc3ccccc3nc-2c2ccccc12 | inactive: 13.1% |
| O=C(N/N=C/c1ccncc1)c1cc2c(ccc3ccccc32)o1 | inconclusive: 69.8% |
| COc1ccc(C(=O)NCCC2=CCCCC2)cc1 | inconclusive: 77.4% |
| Cc1ccc(C)c(N(C)C(=O)c2cc3c(=O)[nH]c4ccc(C)cc4c3s2)c1 | inconclusive: 59% |
| CC(C)C(=O)Nc1cccc(-c2csc(-c3ccccc3)n2)c1 | inconclusive: 48.5% |
| COc1cc(C(=O)c2ccccc2)c(OC)cc1C(=O)Nc1ccc(O)cc1 | inconclusive: 44.6% |
| CC(C)CSC1=NSC2=NC(=O)/C(=C\c3cccs3)C(=N)N12 | inactive: -0.379% |
| O=c1c2ccccc2nc(SCc2nc3ccccc3s2)n1CCCO | inconclusive: 39.6% |
| Cc1ccc(SCC(=O)NC(C)c2ccccc2)cc1 (centres undefined) | inconclusive: 53.5% |
| Cc1ccc(Oc2nc(-c3ccccn3)nc3ccccc23)cc1 | inconclusive: 30% |
| Cc1ccc(NC2c3ncccc3C(=O)N2Cc2ccc(F)cc2)cc1 (centres undefined) | inconclusive: 47.3% |
| CN(C)c1nc(OCCNC(=O)COc2ccc(Cl)cc2Cl)nc(N(C)C)n1 | inactive: 4.68% |
| C=CCCC(=O)N1CCC(n2nccc2NC(=O)CCCc2ccccc2)CC1 | inconclusive: 72.4% |
| CC(C)(C)OC(=O)C(Cc1ccc(OC(C)(C)C)cc1)NC(=O)CNC(=O)OCc1ccccc1 (stereo not drawn) (Cbz-Gly-[ξY](tBu)-OtBu) | inconclusive: 46.7% |
| COc1ccc([C@H]2CC(=O)C=C(c3ccc(F)cc3OCc3ccccc3)C2)cc1 | inconclusive: 39.1% |
| Cc1ccc(N(C(=O)Cn2nnc(-c3ccccc3)n2)C(C(=O)NC2CCCCC2)c2ccccn2)cc1C (centres undefined) | inconclusive: 40.8% |
| CC(C)CCSc1nc(N2CCOCC2)c2c(c1C#N)CC(C)(C)OC2 | active: 91.1% |
| CC(=O)N1c2ccc(S(=O)(=O)N3CCCC3C(=O)Nc3ccc(C)cc3)cc2CC1C (centres undefined) | inactive: -2.85% |

| SMILES | activation |
| --- | --- |
| CCNC(=S)N/N=C(\C)c1ccc2ccccc2c1OC(F)F | inactive: 22.9% |
| CC(=O)c1sc(Nc2nc3ccc(F)cc3s2)nc1C | inactive: 0.741% |
| N=C1SCC(=O)N1c1ncc(Cc2cccc(Cl)c2)s1 | inactive: 2.02% |
| O=C(Nc1cccc(-n2cnnn2)c1)c1ccc(C(F)(F)F)cc1 | inconclusive: 78.3% |
| COc1ccc(-c2cc(C(=O)NC(C)C)no2)cc1 | inconclusive: 30.1% |
| CN(C)c1ccc(/C=C/c2nc3ccccc3c(=O)n2-c2ccc(C(=O)O)cc2)cc1 | inconclusive: 32% |
| CC1(C)Cc2cccc(OCC(=O)Nc3ccccc3F)c2O1 | inconclusive: 33.4% |
| COc1cccc2cc(C(=O)NCCc3ccccc3)oc12 | inactive: 13.8% |
| Cc1ccc(C2=NN(C(=O)C3CCCO3)C(c3ccco3)C2)cc1 (centres undefined) | inactive: 0.962% |
| C=CCOC(=O)C(C#N)c1nc2ccccc2nc1N1CCC(C(=O)OCC)CC1 (centres undefined) | inconclusive: 50.6% |
| O=C(Nc1ccccc1)c1oc2ccccc2c1NC(=O)C1CC1 | inconclusive: 70.1% |
| Cc1cc([N+](=O)[O-])ccc1NCc1ccccc1 | inactive: 13.8% |
| CCc1ccc(N2CC(C(=O)Nc3ccc(F)cc3)CC2=O)cc1 (centres undefined) | inconclusive: 55.3% |
| CCOC(=O)N1CCN(C(=O)c2cc3c(s2)-c2c(C)cccc2OC3)CC1 | inconclusive: 34.3% |
| O=C(CSc1ccccc1C(=O)N1CCN(c2ccccc2)CC1)N1CCCC1 | inactive: -0.833% |
| CC(=O)c1cccc(NC(=O)Nc2cccnc2)c1 | inconclusive: 30.8% |
| CN(C)CCC(c1ccc(Br)cc1)c1ccccn1 (centres undefined) | inconclusive: 37.3% |
| CC(OC(=O)c1cc(Cl)ccc1[N+](=O)[O-])C(=O)NC(C)c1ccc(F)cc1 (centres undefined) | inconclusive: 33.9% |
| COc1cc2c(cc1OC)C(C)N(C(=O)c1cc3c(=O)oc4ccc(C)cc4c3s1)CC2 (centres undefined) | inactive: -0.721% |
| CC(=O)c1ccc(NC(=O)NCc2ccc(F)cc2)cc1 | inconclusive: 49% |
| Cc1ccc(-c2nc(CSc3nc4ccccc4c(=O)n3CCO)cs2)cc1 | inconclusive: 42.9% |
| COc1cc(/C=N\NC(=O)c2ccc(-c3ccccc3)cc2)cc(OC)c1O | inconclusive: 76.9% |

Grouped by structure: those above containing fluorine

| SMILES | activation |
| --- | --- |
| O=C(OCC1OC(n2cnc3c(N(C(=O)c4ccccc4)C(=O)c4ccccc4)ncnc32)C(O)C1F)c1ccccc1 (centres undefined) | inactive: 0.168% |
| Cc1ccc(NC2c3ncccc3C(=O)N2Cc2ccc(F)cc2)cc1 (centres undefined) | inconclusive: 47.3% |
| COc1ccc([C@H]2CC(=O)C=C(c3ccc(F)cc3OCc3ccccc3)C2)cc1 | inconclusive: 39.1% |
| CCNC(=S)N/N=C(\C)c1ccc2ccccc2c1OC(F)F | inactive: 22.9% |
| CC(=O)c1sc(Nc2nc3ccc(F)cc3s2)nc1C | inactive: 0.741% |
| O=C(Nc1cccc(-n2cnnn2)c1)c1ccc(C(F)(F)F)cc1 | inconclusive: 78.3% |
| CC1(C)Cc2cccc(OCC(=O)Nc3ccccc3F)c2O1 | inconclusive: 33.4% |
| CCc1ccc(N2CC(C(=O)Nc3ccc(F)cc3)CC2=O)cc1 (centres undefined) | inconclusive: 55.3% |
| CC(OC(=O)c1cc(Cl)ccc1[N+](=O)[O-])C(=O)NC(C)c1ccc(F)cc1 (centres undefined) | inconclusive: 33.9% |
| CC(=O)c1ccc(NC(=O)NCc2ccc(F)cc2)cc1 | inconclusive: 49% |
